This test has as its system mice, LPC-1 plasma cell tumor ip, median survival T/C. Nature of the test: NCI In Vivo Anticancer Drug Screen. Data for tumor model Lieberman Plasma Cell No. 1 (LPC-1) (intraperitoneal) in unknown mice. The settings on record: T/C endpoint: median survival time, higher T/C = longer survival. As for the experimental part: The antitumor activity of compounds was measured in mice bearing transplantable tumors. Survival or tumor size were measured and the results are expressed as the measurement made in the treated group (T) divided by the measurement made in the vehicle treated control group (C). The tumor model used in this assay is Lieberman Plasma Cell No. 1 (LPC-1) (intraperitoneal) in unknown mice

The list shows only some results of the screen, not a fair sample: it covers a few groups of compounds. Not every dose and run of a compound is shown. T/C gives the treated animals as a percentage of the vehicle group. Where survival is the endpoint, the PubChem record calls one and a half times the control and up active, and a quarter to a half above the control has no call in these data; cut-offs in other NCI protocols can differ. Some T/C values are marked as having no survivor count here; that says nothing about deaths at the dose. Schedule codes are those of the source, taken here to give the interval after Q, in days (D) or hours (H), and the number of doses after X.

Take `NC1CCCCC1.NP(=O)(O)N(CCCl)CCCl`: the T/C is 105 % of control [survivor count not shown] (dose: 6.0 mg/kg/injection, schedule: Q01DX028 (sc), vehicle: saline); 137 % of control [survivor count not shown] (dose: 11.0 mg/kg/injection, schedule: Q01DX028 (sc), vehicle: saline); 148 % of control [survivor count not shown] (dose: 22.0 mg/kg/injection, schedule: Q01DX028 (sc), vehicle: saline); 102 % of control [survivor count not shown] (dose: 44.0 mg/kg/injection, schedule: Q01DX028 (sc), vehicle: saline).

With `NC(Cc1ccccc1N(CCCl)CCCl)C(=O)O` (stereo not drawn), the T/C (dose: 0.5 mg/kg/injection, schedule: Q01DX028 (sc), vehicle: saline) was 165 % of control [survivor count not shown]; the T/C (dose: 0.8 mg/kg/injection, schedule: Q01DX028 (sc), vehicle: saline) is 220 % of control [survivor count not shown]; the T/C (dose: 1.3 mg/kg/injection, schedule: Q01DX028 (sc), vehicle: saline) is 134 % of control [survivor count not shown]; the T/C (dose: 2.0 mg/kg/injection, schedule: Q01DX028 (sc), vehicle: saline) was 111 % of control [survivor count not shown].

As to `NC(Cc1cccc(N(CCCl)CCCl)c1)C(=O)O` (stereo not drawn), the T/C is 121 % of control [survivor count not shown] (dose: 1.8 mg/kg/injection, schedule: Q01DX028 (sc), vehicle: saline); 94 % of control [survivor count not shown] (dose: 5.0 mg/kg/injection, schedule: Q01DX028 (sc), vehicle: saline); 94 % of control [survivor count not shown] (dose: 14.0 mg/kg/injection, schedule: Q01DX028 (sc), vehicle: saline).

As for `C[N+](CCCl)(CCCl)Cc1ccc([N+](=O)[O-])cc1`, the T/C is 100 % of control [survivor count not shown] (dose: 3.0 mg/kg/injection, schedule: Q01DX028 (sc), vehicle: water); 128 % of control [survivor count not shown] (dose: 5.0 mg/kg/injection, schedule: Q01DX028 (sc), vehicle: water); 105 % of control [survivor count not shown] (dose: 8.3 mg/kg/injection, schedule: Q01DX028 (sc), vehicle: water); 92 % of control [survivor count not shown] (dose: 14.0 mg/kg/injection, schedule: Q01DX028 (sc), vehicle: water); 94 % of control [survivor count not shown] (dose: 23.0 mg/kg/injection, schedule: Q01DX028 (sc), vehicle: water).

As for `COc1ccc(N(CCCl)CCCl)cc1`, the T/C reads like this: (dose: 7.5 mg/kg/injection, schedule: Q01DX001 (sc), vehicle: carboxymethylcellulose (CMC)) 130 % of control [survivor count not shown]; (dose: 15.0 mg/kg/injection, schedule: Q01DX001 (sc), vehicle: carboxymethylcellulose (CMC)) 108 % of control [survivor count not shown]; (dose: 30.0 mg/kg/injection, schedule: Q01DX001 (sc), vehicle: carboxymethylcellulose (CMC)) 116 % of control [survivor count not shown]; (dose: 40.0 mg/kg/injection, schedule: Q01DX001 (oral), vehicle: carboxymethylcellulose (CMC)) 117 % of control [survivor count not shown]; (dose: 40.0 mg/kg/injection, schedule: Q04DX008 (oral), vehicle: carboxymethylcellulose (CMC)) 111 % of control [survivor count not shown]; (dose: 40.0 mg/kg/injection, schedule: Q08DX004 (oral), vehicle: carboxymethylcellulose (CMC)) 108 % of control [survivor count not shown]. Besides, the T/C was 122 % of control [survivor count not shown] (dose: 60.0 mg/kg/injection, schedule: Q01DX001 (sc), vehicle: carboxymethylcellulose (CMC)); 141 % of control [survivor count not shown] (dose: 80.0 mg/kg/injection, schedule: Q01DX001 (oral), vehicle: carboxymethylcellulose (CMC)); 191 % of control [survivor count not shown] (dose: 80.0 mg/kg/injection, schedule: Q04DX008 (oral), vehicle: carboxymethylcellulose (CMC)); 179 % of control [survivor count not shown] (dose: 80.0 mg/kg/injection, schedule: Q08DX004 (oral), vehicle: carboxymethylcellulose (CMC)); 125 % of control [survivor count not shown] (dose: 120.0 mg/kg/injection, schedule: Q01DX001 (sc), vehicle: carboxymethylcellulose (CMC)); 214 % of control [survivor count not shown] (dose: 160.0 mg/kg/injection, schedule: Q01DX001 (oral), vehicle: carboxymethylcellulose (CMC)). Besides, the T/C is 132 % of control [survivor count not shown] (dose: 160.0 mg/kg/injection, schedule: Q04DX008 (oral), vehicle: carboxymethylcellulose (CMC)); 288 % of control [survivor count not shown] (dose: 160.0 mg/kg/injection, schedule: Q08DX004 (oral), vehicle: carboxymethylcellulose (CMC)); 152 % of control [survivor count not shown] (dose: 320.0 mg/kg/injection, schedule: Q01DX001 (oral), vehicle: carboxymethylcellulose (CMC)); 108 % of control [survivor count not shown] (dose: 320.0 mg/kg/injection, schedule: Q04DX008 (oral), vehicle: carboxymethylcellulose (CMC)); 129 % of control [survivor count not shown] (dose: 320.0 mg/kg/injection, schedule: Q08DX004 (oral), vehicle: carboxymethylcellulose (CMC)).

(Values after PubChem BioAssay AID344 (DTP/NCI, 2004).)
